Results as given in US11173139B2, “Method for extending lifespan delaying the onset of age-related disease” (priority 2004, dated 2021).
At least one compound was matched to its structure with a doubt left.

Tests used:
DNA repair in skin = assay: Unscheduled DNA synthesis (UDS) in UV-exposed skin; assay type: in vivo; details: 8 mM applied to skin, UV radiation from the sun
[1] = Weight gain of young (one month) C57Bl/6 mice fed oxaloacetate; assay type: in vivo, C57Bl/6 type mice; details: one month old mice
C57Bl/6 mice = assay: Lifespan and health of C57Bl/6 mice fed oxaloacetate; assay type: in vivo; details: 0.4% in food
brain mitochondrial DNA = details: mice, kainic acid; cited from earlier work
[2] = Oxaloacetate in individuals with age related disorders versus placebo; assay type: in vivo; details: about 7 mg per kg every other day
[3] = Oral oxaloacetate in an obese individual; assay type: in vivo; details: 1,000 mg orally every other day for 30 days, no calorie restriction
[4] = tested on: C. elegans (N2 wild type); assay: C. elegans lifespan on oxaloacetate-containing nematode growth agar; assay type: in vivo, Caenorhabditis elegans; details: Example 2, 2 to 16 mM in agar
Experimental: A similar set of eight control plates with the same nematode growth agar was also prepared. […] In addition, five “starter plates” were made using nematode growth agar and no 5′flurodeoxyuridine. All plates were streaked with 0.5 ml bacteria Luria broth containing E. coli as a food source for the nematodes. The bacteria were allowed to grow on the plates for several days at 37° C. prior to adding C. elegans. Ten C. elegans nematodes were transferred to each of five “starter plates” and were left on the plates for 12 hours to lay eggs. The C. elegans were then removed and the eggs were allowed to grow into young adults for two days. Ten nematodes were then transferred to each control plate and oxaloacetate plate by “picking” worms with a microprobe from the starter plate and moving it onto the target test plates. The day after the starter plates have been started with the 10 C. elegans was designated “day 0”, and was the estimated time of birth. The C. elegans were kept out of direct sunlight and were raised at a temperature of 21° C. The plates with the C. elegans were counted every day to determine the number of dead nematodes. Nematodes were scored as dead when they no longer respond to a gentle prodding with a probe. Lifespan is defined as the time elapsed from when the nematodes are hatched (lifespan=0) to when they are scored as dead. […]

[5] = tested on: liver tissue gene expression; assay: Liver gene expression, Affymatrix Mouse Genome 430 2.0 Array, oxaloacetate and CR mice versus control mice; assay type: in vivo, C57Bl/6 mice
From the text: Three mice of each of the three groups of the C57Bl/6 mice of Example 6 were sacrificed after 21 weeks. […] Because each group was a pooling of three mice, there are a variety of individual responses. Changes in the physical results of the group (such as weight loss, increase in health span, and increase in life span) are due to genes expressed in common by the group, not in individual variation. Thus it is important to look at the genes that changed in expression from the control group, but are commonly expressed between the calorie restricted group and the oxaloacetate supplemented group.

[6] = 21 diabetic patients, 100 mg to 1,000 mg; cited from earlier work
cancer tumors = assay: Oxaloacetate in individuals with cancer tumors; assay type: in vivo; details: 2,000 mg per day ingested
NAD+/NADH ratio = details: retina and visual cortex study, doubling the NAD+/NADH ratio; cited from earlier work

SMILES: O=C(O)CC(=O)C(=O)O [oxaloacetate]
- unscheduled DNA synthesis (UDS) (DNA repair in skin): significant increase in UDS
- effect on weight gain ([1]; 0.4% oxaloacetate from the start, FIG. 7): reduced weight gain
- time for the effect to be fully seen ([1]; 0.4% oxaloacetate): about three weeks
- lifespan versus control group (words, initial indications) (C57Bl/6 mice; experiment continuing): living longer than the control group
- health during the experiment (C57Bl/6 mice; control partly affected by inflammation): healthiest group
- protection of brain mitochondrial DNA (brain mitochondrial DNA): protected brain mitochondrial DNA from damage
- symptoms associated with aging (fasting glucose, insulin, triglycerides, Hs-CRP, cholesterol, blood pressure) ([2]; 30 days or more, vs placebo): reduction in symptoms associated with aging
- risk for atherosclerosis ([2]; vs untreated): reduction in the risk for atherosclerosis
- body fat and body weight [3]: reduction of body fat and body weight
- lifespan increase versus concentration [4]: increased with 4 mM, 6 mM, 8 mM, 10 mM, 12 mM, 14 mM and 16 mM concentrations
- Gene Movement in Same Direction?, Fabp5 ([5]; Affymatrix No. 417, OX versus CR, both to control): YES
- Gene Movement in Same Direction?, Serpinb1a ([5]; Affymatrix No. 713, OX versus CR, both to control): YES
- Gene Movement in Same Direction?, Ly6d ([5]; Affymatrix No. 1325, OX versus CR, both to control): YES
- Gene Movement in Same Direction?, Usp18 ([5]; Affymatrix No. 2586, OX versus CR, both to control): YES
- Gene Movement in Same Direction?, Saa2 ([5]; Affymatrix No. 3470, OX versus CR, both to control): YES
- Gene Movement in Same Direction?, Dgat2l1 ([5]; Affymatrix No. 3899, OX versus CR, both to control): YES
- Gene Movement in Same Direction?, Lgals1 ([5]; Affymatrix No. 3968, OX versus CR, both to control): YES
- Gene Movement in Same Direction?, 4933433D23Rik ([5]; Affymatrix No. 5094, OX versus CR, both to control): YES
- Gene Movement in Same Direction?, 2510004L01Rik ([5]; Affymatrix No. 5268, OX versus CR, both to control): YES
- Gene Movement in Same Direction?, Foxq1 ([5]; Affymatrix No. 6994, OX versus CR, both to control): YES
- Gene Movement in Same Direction?, A430056A10Rik ([5]; Affymatrix No. 7814, OX versus CR, both to control): YES
- Gene Movement in Same Direction?, Tubb2 ([5]; Affymatrix No. 11606, OX versus CR, both to control): YES
- Gene Movement in Same Direction?, Lcn2 ([5]; Affymatrix No. 12006, OX versus CR, both to control): YES
- Gene Movement in Same Direction?, 2510004L01Rik ([5]; Affymatrix No. 14650, OX versus CR, both to control): YES
- Gene Movement in Same Direction?, transcribed sequence with weak similarity to GBP2_HUMAN ([5]; Affymatrix No. 15668, OX versus CR, both to control): YES
- Gene Movement in Same Direction?, Ucp2 ([5]; Affymatrix No. 16364, OX versus CR, both to control): YES
- Gene Movement in Same Direction?, Trim2 ([5]; Affymatrix No. 16727, OX versus CR, both to control): YES
- Gene Movement in Same Direction?, Socs2 ([5]; Affymatrix No. 17285, OX versus CR, both to control): YES
- Gene Movement in Same Direction?, Saa2 ([5]; Affymatrix No. 17502, OX versus CR, both to control): YES
- Gene Movement in Same Direction?, unnamed gene ([5]; Affymatrix No. 18738, OX versus CR, both to control): YES
- Gene Movement in Same Direction?, Ifit1 ([5]; Affymatrix No. 18910, OX versus CR, both to control): YES
- Gene Movement in Same Direction?, Saa1 ([5]; Affymatrix No. 18915, OX versus CR, both to control): YES
- Gene Movement in Same Direction?, Fabp4 ([5]; Affymatrix No. 19390, OX versus CR, both to control): YES
- Gene Movement in Same Direction?, 1110067D22Rik ([5]; Affymatrix No. 19440, OX versus CR, both to control): YES
- Gene Movement in Same Direction?, LOC209387 ([5]; Affymatrix No. 22024, OX versus CR, both to control): YES
- Gene Movement in Same Direction?, 1600032L17Rik ([5]; Affymatrix No. 23279, OX versus CR, both to control): YES
- Gene Movement in Same Direction?, AW539457 ([5]; Affymatrix No. 26927, OX versus CR, both to control): YES
- Gene Movement in Same Direction?, Foxq1 ([5]; Affymatrix No. 30006, OX versus CR, both to control): YES
- Gene Movement in Same Direction?, Serpina4-ps1 ([5]; Affymatrix No. 35241, OX versus CR, both to control): YES
- Gene Movement in Same Direction?, Mus musculus transcribed sequences ([5]; Affymatrix No. 38815, OX versus CR, both to control): YES
- Gene Movement in Same Direction?, 9130019P20Rik ([5]; Affymatrix No. 39136, OX versus CR, both to control): YES
- Gene Movement in Same Direction?, Mus musculus transcribed sequences ([5]; Affymatrix No. 43312, OX versus CR, both to control): YES
- Gene Movement in Same Direction?, 5730494M16Rik ([5]; Affymatrix No. 44727, OX versus CR, both to control): YES
- Gene Movement in Same Direction?, Mus musculus transcribed sequences ([5]; Affymatrix No. 45080, OX versus CR, both to control): YES
- Sirt1 gene expression in the liver ([5]; liver): no increase in the Sirt1 gene
- average drop in fasting blood glucose levels [6]: 24%
- patients in whom urine glucose levels dropped [6]: 19 out of the 21
- tumor growth (cancer tumors): limits the growth of the tumor

SMILES: CC(=O)C(=O)O [pyruvate]
- drop of NADH levels in the cytosol (NAD+/NADH ratio): 50%
